Assay results reported in PubChem BioAssay AID1487 (National Center for Advancing Translational Sciences (NCATS), 2009).
“And” between values parts separate entries of the source, which are not always exact repeats. Equal entries are not always repeated. The list shows a part of the results. Shown are side measurements of this screen, not its main read-out; they come without a call. Compounds called inactive in the main read-out are mostly missing here. Words in brackets tell the shape of the fitted curve; partial curves, single points and poor fits give uncertain potencies.

Experiment: qHTS Assay for Modulators of Lamin A Splicing
Conditions: HeLa LMNA splicing GFP/RFP minigene ratio, 48 h
Procedure, shortened: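 S3 HeLa cells stably expressing lamin A-EGFP splicing minigene plus DsRed2, 600 cells/well, 48 h compound exposure at 37C. Laser-scanning cytometry; analysed as GFP (500-530 nm)/RFP (575-640 nm) total intensity ratio; 0.5% DMSO vehicle.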

[1] = measured here: GFP splicing reporter channel
[2] = measured here: RFP viability control channel

| Structure (SMILES) | AC50 [1] | AC50 [2] |
| --- | --- | --- |
| O=C(O)c1cc(O)c2c(c1)[C@H]([C@H]1c3cc(C(=O)O)cc(O)c3C(=O)c3c(O[C@@H]4OC(CO)C(O)C(O)C4O)cccc31)c1cccc(O[C@@H]3OC(CO)C(O)C(O)C3O)c1C2=O (some centres undefined) | 35.5 µM [falling, single point] | 14.1 µM [falling, single point] |
| CC(C)CNC(=S)NNC(=O)c1csc2c1CCCC2 |  | 14.1 µM [rising, single point] |
| COc1ccc2[nH]cc(CCNc3ncnc4ccc(-c5ccccc5OC)cc34)c2c1 | 22.4 µM [falling, single point] | 25.1 µM [falling, single point] |
| CC(C)C(=O)NNC(=O)CSc1nc(C2CCCCC2)nc2ccccc12 |  | 3.98 µM [rising, full curve, poor fit] |
| CCC(C)(C)NC(=O)c1cc(S(=O)(=O)N2CCCCC2)ccc1N1CCOCC1 | 0.891 µM [falling, full curve, poor fit] | 0.0316 µM [falling, full curve, poor fit] |
| COc1ccc(C2=CC(c3cc(OC)c(OC)c(OC)c3)NC(=S)N2)cc1 (centres undefined) |  | 35.5 µM [rising, single point] |
| Cc1noc(C)c1S(=O)(=O)Nc1ccc(C(=O)N2CCc3ccccc3C2)cc1 | 10 µM [rising, partial curve, poor fit] | 12.6 µM [rising, partial curve, poor fit] |
| c1ccc2sc(Nc3nc4cc5c(cc4s3)OCO5)nc2c1 | 22.4 µM [rising, partial curve, poor fit] | 17.8 µM [rising, partial curve, poor fit] |
| COc1ccc(OC)c(CN2CCC(C(=O)N3CCN(c4ccccc4F)CC3)CC2)c1 | 35.5 µM [rising, single point] | 35.5 µM [rising, single point] |
| CCN(CC)C(=O)CCCC(=O)N(CC)CC |  | 2.51 µM [falling, full curve] |
| CCOC(=O)c1sc(NC(=O)CCSC)nc1C |  | 3.98 µM [falling, single point] |
| Cc1ccc(Cc2nc3ccccc3nc2SCC(=O)N2CCCCC2)cc1 |  | 17.8 µM [rising, single point] |
| CCOc1ccccc1NC(=O)c1c(NCc2ccc(C)o2)sc2c1CCCCC2 |  | 10 µM [rising, partial curve] |
| CCOC(=O)CSc1ncnc2c1cnn2-c1ccc(Cl)cc1 |  | 35.5 µM [rising, single point] |
| Oc1ccc(/C=C\c2cc(O)cc(O)c2)cc1 | 6.31 µM [falling, partial curve] |  |
| Cc1cc(O)ccc1Nc1nc2ccccc2nc1Nc1ccc(O)cc1C |  | 10 µM [rising, single point] |
| Nc1cccc(C2=Nc3cccc4cccc(c34)N2)c1 |  | 0.447 µM [rising, full curve, poor fit] |
| Cc1sc(N/N=C/c2ccco2)nc1-c1ccccc1 | 35.5 µM [rising, single point] |  |
| COc1ccccc1CNc1ncnc2ccc(-c3cccc(NS(C)(=O)=O)c3)cc12 | 14.1 µM [falling, partial curve] | 17.8 µM [falling, partial curve] |
| CCn1c(SCC(=O)N/N=C/c2cc(OC)c(OC)c(OC)c2)nc2ccccc21 | 11.2 µM [rising, partial curve] | 20 µM [rising, partial curve] |
| CCOc1ccc(OCCCCn2ccnc2)cc1 | 11.2 µM [rising, partial curve] | 12.6 µM [rising, partial curve] |
| CCOC(=O)c1c(NC(=O)CCl)sc(C(=O)N(CC)CC)c1C |  | 12.6 µM [rising, partial curve] |
| O=C(c1cccc(NS(=O)(=O)c2cccc(F)c2)c1)N1CCN(c2ccccc2)CC1 |  | 17.8 µM [rising, single point] |
| COC(=O)c1c(NC(=S)Nc2cc(OC)c(Cl)cc2OC)sc2c1CCCCC2 |  | 12.6 µM [rising, partial curve] |
| O=C(NCCc1ccc(Cl)cc1)c1cnc2n(c1=O)CCS2 |  | 35.5 µM [rising, single point] |
| COc1ccc2ccccc2c1C(=O)/C=C\c1ccoc1 | 12.6 µM [rising, single point] | 14.1 µM [rising, partial curve] |
| CC1Cc2cc(S(=O)(=O)NCc3ccc(F)cc3)ccc2N1C(=O)C1CCC1 (centres undefined) |  | 0.0398 µM [falling, full curve] |
| CN1CCC(=C2c3ccccc3C=Cc3ccccc32)CC1 | 5.62 µM [falling, partial curve, poor fit] and 17.8 µM [rising, single point] | 5.62 µM [falling, single point] and 17.8 µM [rising, partial curve, poor fit] |

Two entries from above, with tabs.
Structure (SMILES)	AC50 [1]	AC50 [2]
CC(C)CNC(=S)NNC(=O)c1csc2c1CCCC2		14.1 µM [rising, single point]
COc1ccc2[nH]cc(CCNc3ncnc4ccc(-c5ccccc5OC)cc34)c2c1	22.4 µM [falling, single point]	25.1 µM [falling, single point]
